Laboratory results published in patent publication US20100055103A1.
These are yes or no findings as the source states them, for the method shown. Some results given as binding are weak or reduced against the parent protein; the word gives no strength.

The chains behind the UniProt entries cited, without tags or fusion partners. Where a name states a change or a piece, a line headed by the entry shows the natural chain unless it says otherwise.
UniProt Q16552: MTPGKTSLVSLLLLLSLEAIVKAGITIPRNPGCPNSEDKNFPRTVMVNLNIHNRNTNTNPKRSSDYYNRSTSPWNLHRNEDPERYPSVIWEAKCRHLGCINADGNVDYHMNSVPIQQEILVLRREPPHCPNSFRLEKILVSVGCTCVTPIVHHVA

Experiments:
[1] = target: T1, Human IL-17F (R&D Systems, cat #1335-IL-025/CF) (human) (UniProt Q96PD4); assay: phage spot competition ELISA screening / BIAcore (FIG. 14)
T1 sequence: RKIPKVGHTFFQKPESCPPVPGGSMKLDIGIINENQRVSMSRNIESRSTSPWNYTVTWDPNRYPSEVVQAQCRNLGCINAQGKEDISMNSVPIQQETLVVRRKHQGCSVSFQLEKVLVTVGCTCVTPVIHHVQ

[2] = target: Human IL-17A (R&D Systems, cat #317-IL-050/CF) (human) (UniProt Q16552); assay: screening of cross-reactive clones; assay not given
[3] = target: Recombinant human IL-17A/F heterodimer (human) (UniProt Q16552); assay: as above
[4] = target: T1, Human IL-17F (R&D Systems, cat #1335-IL-025/CF) (human); assay: as above

B1: YW265.01 (antibody, human IgG1, V domains shown)
VL: DIQMTQSPSSLSASVGDRVTITCRASQSISSYLAWYQQKPGKAPKLLIYGASSRASGVPSRFSGSGSGTDFTLTISSLQPEDFATYYCQQYYSSPLTFGQGTKVEIKR
VH: EVQLVESGGGLVQPGGSLRLSCAASGYSFTSPYISWVRQAPGKGLEWVASIFYYSGATDYADSVKGRFTISADTSKNTAYLQMNSLRAEDTAVYYCARGGYGYNQWFYSIYQSYFDYWGQ
binding [1]: binds

B2: YW278.15 (antibody, V domains shown)
VH: EVQLVESGGGLVQPGGSLRLSCAASGFTFTDYDISWVRQAPGKGLEWVASISPSDGYTYYADSVKGRFTISADTSKNTAYLQMNSLRAEDTAVYYCARYLYWSYVMDYWGQGTLVTVSS
VL: DIQMTQSPSSLSASVGDRVTITCRASQDVSTAVAWYQQKPGKAPKLLIYSASFLYSGVPSRFSGSGSGTDFTLTISSLQPEDFATYYCQQSYTTPPTFGQGTKVEIKR
binding [2]: binds

B3: YW279.1 (antibody, V domains shown)
VL: DIQMTQSPSSLSASVGDRVTITCRASQSISSYLAWYQQKPGKAPKLLIYGASSRASGVPSRFSGSGSGTDFTLTISSLQPEDFATYYCQQRYSQPITFGQGTKVEIKR
VH: EVQLVESGGGLVQPGGSLRLSCAASGFSFTSYMMSWVRQAPGKGLEWVSTIYPESGATDYADSVKGRFTISADTSKNTAYLQMNSLRAEDTAVYYCAREGYYYSTSIKYYPWFDYWGQ
binding [3]: binds
binding [4]: binds
binding [2]: binds
